Experimental data: PubChem BioAssay AID1259326 (Drosophila RNAi Screening Center, 2017)
Aim: 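RNAi screen for genes modifying zinc chloride toxicity in fly cells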. System: Drosophila S2R+ cells. Knock-down reagent: long dsRNA against Drosophila genes. Timing: about 5 days (4 days of RNAi, then 1 day of zinc). Treatment: zinc chloride added to 15 mM final for one day. Measured: 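Luminescent ATP signal marks surviving cells, read after RNAi for 4 days then 15 mM zinc chloride for 1 day; z-scores are replicate means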. Direction: averaged z-score: higher = more ATP than other wells, i.e. more surviving cells, after zinc; ATP luminescence: higher = more ATP, i.e. more surviving cells. Hit rule: 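Called active when the averaged z-score lies outside -1.5 to 1.5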.
The deposit covers 573 reagents; below is a part drawn at random. 39 of them (6.8%) count as active. 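All actives have raised ATP, meaning more surviving cells; in these data active calls sit at averaged z-scores near 1.5 or above.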 The raw values are shown without normalisation. A number with no mark means an inactive call. Names joined by + are all predicted targets of the reagent. Reagent sequences are not shown. Not stated in the record: the amount of reagent.

| gene | DRSC id | averaged z-score | ATP luminescence, replicate 1 | ATP luminescence, replicate 2 |
| --- | --- | --- | --- | --- |
| Galphao (GeneID 36104) | DRSC07430 | -0.11 | 98025 | 76342 |
| Galphao (GeneID 36104) | DRSC29710 | -0.159 | 75930 | 71500 |
| Galphao (GeneID 36104) | DRSC37303 | -0.111 | 67411 | 76616 |
| LeuRS (GeneID 326262) | DRSC00581 | 1.54 (active) | 1.36e5 | 81179 |
| LeuRS (GeneID 326262) | DRSC32059 | 1.92 (active) | 1.28e5 | 1.02e5 |
| LeuRS (GeneID 326262) | DRSC32060 | 1.5 | 97767 | 95863 |
| Rho1 (GeneID 36775) | DRSC30797 | -0.0726 | 71059 | 68675 |
| Rho1 (GeneID 36775) | DRSC30798 | -0.179 | 75981 | 74774 |
| slim (GeneID 37121) | DRSC06921 | -0.432 | 65554 | 81745 |
| slim (GeneID 37121) | DRSC41244 | -0.213 | 65742 | 76975 |
| slim (GeneID 37121) | DRSC41245 | 0.00133 | 62158 | 78361 |
| AMPKalpha (GeneID 43904) | DRSC28055 | -0.376 | 65021 | 63496 |
| AMPKalpha (GeneID 43904) | DRSC31401 | -0.0318 | 97144 | 76753 |
| AMPKalpha (GeneID 43904) | DRSC37033 | -0.03 | 81024 | 73272 |
| robo2 (GeneID 44522) | DRSC00377 | -0.395 | 64709 | 68949 |
| robo2 (GeneID 44522) | DRSC00378 | -0.15 | 98848 | 79262 |
| robo2 (GeneID 44522) | DRSC00686 | -0.0595 | 74524 | 72380 |
| hpo (GeneID 37247) | DRSC06065 | -0.206 | 1.01e5 | 71848 |
| hpo (GeneID 37247) | DRSC36310 | -0.267 | 69819 | 74705 |
| hpo (GeneID 37247) | DRSC36871 | 0.128 | 82363 | 82225 |
| IKKepsilon (GeneID 35329) | DRSC03550 | 0.265 | 98231 | 82191 |
| IKKepsilon (GeneID 35329) | DRSC36795 | -0.176 | 76680 | 75141 |
| IKKepsilon (GeneID 35329) | DRSC41226 | 0.0237 | 68555 | 78812 |
| Chc (GeneID 32537) | DRSC20229 | 1.61 (active) | 1.46e5 | 1.07e5 |
| Chc (GeneID 32537) | DRSC34418 | 1.36 | 1.21e5 | 93547 |
| Chc (GeneID 32537) | DRSC34419 | 0.865 | 86188 | 81762 |
| CG12795 (GeneID 33561) | DRSC00354 | 0.0488 | 90030 | 93924 |
| CG12795 (GeneID 33561) | DRSC41169 | -0.0236 | 69155 | 75779 |
| Cand1 (GeneID 34403) | DRSC01992 | 0.774 | 1.13e5 | 85412 |
| Cand1 (GeneID 34403) | DRSC37484 | -0.526 | 65228 | 65022 |
| Cand1 (GeneID 34403) | DRSC41192 | -0.13 | 65348 | 70150 |
| CG41099 (GeneID 3355072) | DRSC21051 | -0.044 | 95160 | 71639 |
| CG41099 (GeneID 3355072) | DRSC38767 | -0.00381 | 78194 | 71248 |
| CG41099 (GeneID 3355072) | DRSC41184 | -0.208 | 67252 | 73117 |
| Atg9 (GeneID 36821) | DRSC06848 | 0.188 | 1.02e5 | 76496 |
| Atg9 (GeneID 36821) | DRSC38118 | 0.22 | 76565 | 80925 |
| Atg9 (GeneID 36821) | DRSC38119 | 0.237 | 80887 | 89069 |
| Caf1-55 (GeneID 41836) | DRSC16596 | 0.735 | 1.13e5 | 88861 |
| Caf1-55 (GeneID 41836) | DRSC37396 | 1.98 (active) | 1.31e5 | 1.04e5 |
| Caf1-55 (GeneID 41836) | DRSC40758 | 2.19 (active) | 1.16e5 | 1.08e5 |
| ValRS (GeneID 45783) | DRSC06864 | 0.753 | 1.18e5 | 82086 |
| ValRS (GeneID 45783) | DRSC33384 | 0.31 | 83734 | 82120 |
| ValRS (GeneID 45783) | DRSC41146 | 0.401 | 72483 | 87714 |
| ValRS (GeneID 45783) | DRSC41217 | 0.201 | 75090 | 86599 |
| CG46280 + CG46281 | DRSC14505 | 0.102 | 89601 | 84661 |
| CG46280 + CG46281 | DRSC41167 | -0.271 | 66394 | 71556 |
| Nsf2 (GeneID 41694) | DRSC22104 | -0.139 | 86239 | 74592 |
| Nsf2 (GeneID 41694) | DRSC27428 | 0.549 | 1.01e5 | 70785 |
| Nsf2 (GeneID 41694) | DRSC41232 | 1.25 | 88722 | 1.03e5 |
| Rab8 (GeneID 40168) | DRSC11261 | 0.116 | 99071 | 71608 |
| Rab8 (GeneID 40168) | DRSC31658 | -0.697 | 74489 | 59380 |
| Rab8 (GeneID 40168) | DRSC31659 | -0.994 | 55796 | 54390 |
| wal (GeneID 36252) | DRSC07717 | -0.19 | 97074 | 70530 |
| wal (GeneID 36252) | DRSC26330 | -0.058 | 79017 | 73250 |
| wal (GeneID 36252) | DRSC41257 | -0.066 | 67132 | 76084 |
| Slh (GeneID 33434) | DRSC00789 | 0.117 | 1.15e5 | 62433 |
| Slh (GeneID 33434) | DRSC33353 | 1.64 (active) | 1.25e5 | 86729 |
| Slh (GeneID 33434) | DRSC33354 | 1.53 (active) | 92981 | 1.14e5 |
| Nedd4 (GeneID 39958) | DRSC26365 | -0.0223 | 96086 | 72911 |
| Nedd4 (GeneID 39958) | DRSC36367 | -0.157 | 70339 | 72774 |
| Nedd4 (GeneID 39958) | DRSC38426 | -0.311 | 77731 | 66583 |
| Sec61alpha (GeneID 33905) | DRSC03256 | 0.713 | 86702 | 98998 |
| Sec61alpha (GeneID 33905) | DRSC31245 | 1.2 | 86359 | 99586 |
| Sec61alpha (GeneID 33905) | DRSC39936 | 1.55 (active) | 1.05e5 | 1.08e5 |
| Nup154 (GeneID 34527) | DRSC26396 | 1.3 | 87200 | 1.17e5 |
| Nup154 (GeneID 34527) | DRSC34700 | 2.35 (active) | 1.12e5 | 1.26e5 |
| Nup154 (GeneID 34527) | DRSC40143 | -0.0479 | 81933 | 71213 |
| Afg3l2 (GeneID 39922) | DRSC29981 | 0.277 | 89584 | 73169 |
| Afg3l2 (GeneID 39922) | DRSC34402 | 0.429 | 84266 | 86959 |
| Afg3l2 (GeneID 39922) | DRSC34403 | 0.923 | 84685 | 89970 |

Reprinted from the listing for reference:
| gene | DRSC id | averaged z-score | ATP luminescence, replicate 1 | ATP luminescence, replicate 2 |
| --- | --- | --- | --- | --- |
| LeuRS (GeneID 326262) | DRSC00581 | 1.54 (active) | 1.36e5 | 81179 |
| LeuRS (GeneID 326262) | DRSC32059 | 1.92 (active) | 1.28e5 | 1.02e5 |
| LeuRS (GeneID 326262) | DRSC32060 | 1.5 | 97767 | 95863 |
| Rho1 (GeneID 36775) | DRSC30797 | -0.0726 | 71059 | 68675 |
| Rho1 (GeneID 36775) | DRSC30798 | -0.179 | 75981 | 74774 |
| slim (GeneID 37121) | DRSC06921 | -0.432 | 65554 | 81745 |
| slim (GeneID 37121) | DRSC41244 | -0.213 | 65742 | 76975 |
| slim (GeneID 37121) | DRSC41245 | 0.00133 | 62158 | 78361 |
| AMPKalpha (GeneID 43904) | DRSC28055 | -0.376 | 65021 | 63496 |
| AMPKalpha (GeneID 43904) | DRSC31401 | -0.0318 | 97144 | 76753 |
| AMPKalpha (GeneID 43904) | DRSC37033 | -0.03 | 81024 | 73272 |
